Reference: patent publication US7135590B2, “Gallic acid derivative and process of preparing the same” (Council of Scientific and Industrial Research, priority 2003, dated 2006)
At least one compound was matched to its structure with a doubt left.

System: Mentha arvensis
Experiment: Growth promoting activity with Mentha arvensis internode explants
Format: in vivo
Protocol: To confirm the growth promoting activity of methanone-(3′,4′,5′-trimethoxy) phenyl, 1-naphthyl, 2-O-4″-ethyl but-2″-enoate, it was tested with a medicinal and aromatic plant species Mentha arvensis. The explants used were 0.5 cm long pieces of the second and third internodes of the shoots formed from axillary buds and culture. The internode segments were inoculated in MS basal media (Murashige and Skoog, 1962, Physiol. Planta. 15: pp. 473 to 497) containing vitamins 100 μg/ml, myo-inositol 3%, w/v, sucrose 1.5% w/v, Agar and different concentrations of auxins and cytokinin. Different concentrations of 1-naphthalene acetic acid (NM) (0.0, 0.2, 2.0 μg/ml) were used in combination with different concentrations of 6 benzyl amino purine (BAP) (0, 10 & 5 μg/ml). On each kind of media […] of the explants were inoculated into three petriplates with each plates containing 4 explants. Compound 1 was serially replaced with each concentration of NM and BAP individually to observe its growth promoting activity. […]
Cultures were maintained at 25±2° C. and 400 to 600 lux light intensity with 16 h photoperiod. The response of explants was recorded every 24 h over 4 week periods. […] The proportional increase in biomass was recorded by taking the fresh weight of the growing tissue during sub culturing and dividing the increase with the initial weight. […]

## CCOC(=O)C=CCOc1ccc2ccccc2c1C(=O)c1cc(OC)c(OC)c(OC)c1 [Compound 1, methanone-(3′,4′,5′-trimethoxy) phenyl, 1-naphthyl 2-O-4″-ethyl but-2″-enoate]
Medium A2 with BAP replaced: IAA 0.2, Compound 1 5.0
  Number of shoots observed after three weeks: Plant death
Medium A3 with BAP replaced: IAA 2.0, Compound 1 10.0
  Number of shoots observed after three weeks: No growth
